Assay results: patent US4347319A, “Microbiological epoxidation process” (priority 1980, dated 1982)

Experiments:
[1] = test system: purified secondary alcohol dehydrogenase from Pichia sp. NRRL Y-11,328; assay: Substrate specificity, electron acceptor and stoichiometry of purified yeast SADH; type: biochemical; conditions: stoichiometry; for NAD^+ Reduced: isopropanol 5.7, 2-butanol 6.0 μmoles, 340 nm; for Product Formed: isopropanol 5.7 to acetone, 2-butanol 6.0 μmoles to 2-butanone, gas chromatography
[2] = test system: cell fractions of Methylosinus trichosporium (OB3b, NRRL B-11,196); type: biochemical; conditions: S(80); propylene-epoxidizing / methane-hydroxylating activity
Experimental: Cells were washed twice with 25 mM potassium phosphate buffer, pH 7.0 containing 5 mM MgCl2. Cells were suspended in the same buffer. The cell suspensions at 4° C. were disintegrated by a single passage through a French Pressure cell (15,000 lb./in.^2) and centrifuged at 5000×g. for 15 min. to remove unbroken bacteria. The supernatant solution (crude extract) was then centrifuged at 40,000×g. for 30 min., yielding particulate P(40) and soluble S(40) fractions. The S(40) fraction was subsequently centrifuged at 80,000×g. for 60 min., yielding particulate P(80) and soluble S(80) fractions. The particulate fractions [P(40) and P(80)] were suspended in 25 mM potassium phosphate buffer, pH 7.0, containing 5 mM MgCl2 and homogenized at 4° C.
The oxidation of methane and propylene by particulate [(P)40 and (P)80] fractions and soluble [S(80)] fraction was measured at 30° C. by estimating the production of methanol and propylene oxide, respectively. The reaction mixtures contained in […]: 150 mM potassium phosphate buffer, pH 7.0 containing 5 mM MgCl2 b, 0.6 ml; 10μ moles NADH, and cellular fraction.
Reaction mixtures were contained in 10 ml vials at 4° C. […]
Specific activities were expressed as μ moles of products formed per hour per mg. protein. Concentrations of protein in various fractions were determined by the method of Lowry et al., J. Biol. Chem., 193: 265-275 (1951).

SMILES | NAD^+ Reduced [1] [µmol] | Product Formed [1] [µmol] | % Distribution in Cell Fraction [2] [%]
CCC(C)O (stereo not drawn) [2-Butanol] | 5.9 | 5.7 | –
CC(C)O [Isopropanol] | 5.4 | 5.5 | –
C [Methane] | – | – | 0
C=CC [Propylene] | – | – | 0
